In PubChem BioAssay AID493014 (National Center for Advancing Translational Sciences (NCATS), 2011):
Among all 340,000 compounds or so, about 170 (0.05%) were called active. Inconclusive results, whose numbers are uncertain, are shown with a selection of clear calls. The call rests on the fitted dose curve; in most records, active means well fitted inhibition curve with a large enough effect in the signal ratio, with a control signal flat (not every such curve was filed as active); inconclusive means small, poorly fitted or top-dose-only effect, or effect the other way, or a change in a side signal; inactive means flat fitted curve, though single readings scatter; the % refers to the signal ratio. Potencies of inconclusive entries are doubtful fits and often do not repeat.

assay: qHTS Assay to Find Inhibitors of Chronic Active B-Cell Receptor Signaling; settings: ABC-DLBCL IkBa-CBG/CBR reporter, luminescence ratio (green luciferase fused to IkBa over red control in TMD8 lymphoma cells), 4 h; activity change, negative = inhibition: at 46.1 µM (top of the series);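 on activity change, negative = inhibition: plate controls were basal doxycycline-induced cells for no effect and cells given 10 µM MG132 for full effect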
Summary of the method: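 Doxycycline induced both beetle luciferases in TMD8 lymphoma cells; IKK-driven degradation limits the IkappaBalpha-fused green signal, while red luminescence normalises for cell number and nonspecific effects. Compounds tested up to 46 uM, 4 hrs.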
Potency means the concentration at half of the fitted maximal effect.

Compound | activity change, negative = inhibition | Potency
Cc1ccc(NC(=O)c2ncn[nH]2)cc1 | inconclusive: -12.9% | –
O=C(COc1cccc2c1CCNC2=O)Nc1ccc(F)cc1 | – | inconclusive: 8.2 µM [falling, partial curve]
COCCCNC(=O)c1c(N)n(-c2ccccc2)c2nc3ccccc3nc12 | inconclusive: 0.348% | –
CN1CCN(C(=O)CN(Cc2ccc(Cl)cc2)S(C)(=O)=O)CC1 | inactive: 3.8% | –
CCc1ccc2[nH]c(=O)c(CN(CCN3CCCC3)C(=O)NC3CCCCC3)cc2c1 | – | inconclusive: 20 µM [falling, single point]
CCc1nnc(N/N=C/c2ccccc2Cl)n1N | – | inconclusive: 35.5 µM [falling, single point]
Cc1ccc(-c2nnn(CC(=O)N(CC(=O)NC(C)C)c3cnc4ccccc4c3)n2)o1 | inconclusive: -14.8% | –
CC1CCCC(N2CCN(C(=O)c3ccccc3F)CC2)C1 (configuration not stated) | inconclusive: 10.5% | –
Nc1ccc(-c2nc3ccc(N)cc3[nH]2)cc1 | inconclusive: -14.8% | –
COC(=O)c1ccc(NC(=O)c2ccc(N(C)S(C)(=O)=O)cc2)cc1 | inconclusive: -8.51% | –
COc1cccc2sc3cc(NCc4ccc(C)o4)ccc3c(=O)c12 | inactive: -3.49% | –
CC(=O)OC12CC3CC(C1)C(=NO)C(C3)C2 | inconclusive: 11.3% | –
c1ccc(OCc2nc3ccccc3s2)cc1 | – | inconclusive: 20.6 µM [falling, single point]
COc1cc(C(=O)N/N=C/c2ccsc2C)cc(OC)c1OC | – | inconclusive: 1.12 µM [falling, full curve, poor fit]
Cn1nc(-c2ccccc2)cc1NS(=O)(=O)c1ccccc1 | inconclusive: 16% | –
C/C(=N/N=C/c1ccccc1O)c1ccccc1O | inconclusive: -0.379% | –
COc1ccc(CCN2C(=S)N(C)C(=O)C2CC(=O)Nc2ccc(OC)cc2)cc1 (configuration not stated) | inactive: -1.36% | –
Cc1nc(-c2ccc(NC(=O)C3CCCCC3)cc2)cs1 | – | inconclusive: 20.6 µM [falling, partial curve]
CC(=O)Nc1ccc(NC(=O)c2cccc(Oc3ccccc3)c2)cc1 | – | inconclusive: 14.1 µM [falling, partial curve]
N#Cc1c(-c2ccc(Cl)cc2)c2c([nH]c1=O)-c1ccccc1OC2 | inactive: 4.32% | –
O=C(Nc1ccccc1F)c1ccc(CSc2ncccn2)cc1 | – | inconclusive: 28.2 µM [falling, single point]
CCOC(=O)N1CCN(C(=O)c2ccc([N+](=O)[O-])cc2Cl)CC1 | inconclusive: 5.73% | –
N=C1/C(=C\c2coc3ccccc3c2=O)C(=O)N=C2SC=CN12 | inconclusive: 15.1% | –
Cc1cc2[nH]c(=O)c(=O)[nH]c2cc1S(=O)(=O)Nc1cccc(F)c1 | inconclusive: 0.749% | –
CCCN(CCC)C(=S)NC(=O)c1ccc(-c2ccccc2)cc1 | inconclusive: -4.13% | –
COC(=O)C1=C(C)NC(C)=C(C(=O)OC)C1c1ccco1 | inconclusive: -0.905% | –

A draw from above in order of molar mass, rising.
Compound | activity change, negative = inhibition | Potency
CCc1nnc(N/N=C/c2ccccc2Cl)n1N | – | inconclusive: 35.5 µM [falling, single point]
Cn1nc(-c2ccccc2)cc1NS(=O)(=O)c1ccccc1 | inconclusive: 16% | –
COC(=O)c1ccc(NC(=O)c2ccc(N(C)S(C)(=O)=O)cc2)cc1 | inconclusive: -8.51% | –
COc1ccc(CCN2C(=S)N(C)C(=O)C2CC(=O)Nc2ccc(OC)cc2)cc1 (configuration not stated) | inactive: -1.36% | –

Later entries:

Compound | activity change, negative = inhibition | Potency
CCCCC(=O)N/N=C(\C)CC(=O)Nc1cc(Cl)ccc1OC | inconclusive: -1.59% | –
Oc1ccc(C2=NNC(=NCc3ccc4c(c3)OCO4)SC2)c(O)c1 | – | inconclusive: 13 µM [falling, partial curve]
CC(C)CC(=O)Nc1ccc(Oc2ccc(NC(=O)CC(C)C)cc2)cc1 | inconclusive: 4.39% | –
CCOC(=O)C1(Cc2ccccc2)CCN(Cc2csc(C(C)=O)c2)CC1 | inactive: -0.688% | –
COc1cccc(/C=C/C(=O)c2ccc(C)c([N+](=O)[O-])c2)c1 | inactive: -0.171% | –
O=C(Nc1ccccn1)c1cc2ccccc2cc1O | – | inconclusive: 7.08 µM [falling, full curve]
O=C1c2ccccc2C(=O)C1C1=Nc2ccccc2NC(c2ccccc2)C1 (configuration not stated) | inconclusive: 4.85% | –
COc1cc(S(=O)(=O)n2nnc3ccccc32)c(OC)cc1Cl | inconclusive: 10.5% | –
C/C(N)=C(/C#N)C(=O)COC(=O)c1ccc(OCC2CCCO2)cc1 (configuration not stated) | inconclusive: 2.64% | –
CCOC(=O)CSc1nnc(-c2ccccc2OC)o1 | – | inconclusive: 7.31 µM [rising, partial curve]
Cc1nn(Cc2ccccc2)c2c1C(c1ccc(Cl)cc1)C(C#N)=C(N)O2 (configuration not stated) | – | inconclusive: 29.1 µM [falling, single point]
N#CC1=C(N)C2=CCCC[C@H]2[C@H](c2ccc(Br)cc2)C1(C#N)C#N | inconclusive: -11.1% | –
C[N+]1(CC(=O)Nc2ccc(F)cc2)CCN(C(=O)c2ccco2)CC1 | – | inconclusive: 20 µM [falling, partial curve, poor fit]
CCNC(=S)NCc1ccc2[nH]c(C)cc2c1 | inconclusive: 2.65% | –
O=C(COC(=O)CCCOc1ccc(Cl)cc1Cl)NCc1ccccc1 | inconclusive: 4.7% | –
CC(=O)NC1(c2ccccc2)CCN(Cc2nnnn2C(C)(C)C)CC1 | inconclusive: 7.55% | –
CC1CCCC(n2cnc3cc(C(=O)O)ccc32)C1C (configuration not stated) | – | inconclusive: 5.62 µM [falling, single point]
Nc1c(Cl)cc(Cl)cc1C(=O)OCC(=O)N1CCOCC1 | – | inconclusive: 20 µM [falling, partial curve, poor fit]
O=C(CNc1ccc(F)cc1)c1ccccc1 | – | inconclusive: 17.8 µM [falling, single point]
CC(C)c1ccc2nc(N)sc2c1 | inconclusive: -19.3% | –
Fc1cccc(-c2nnn3c2nc(Cl)c2ccccc23)c1 | inconclusive: 288% | –
COC(=O)c1c(NC(=O)CN2CCN(c3ccccc3OC)CC2)c2c(C)cccc2n1C | inconclusive: 1.65% | –
Cc1nc(NC(=O)c2ccc3c(c2)OCO3)ccc1Br | inconclusive: -10.3% | –
CCn1c(=N)n(CCOc2ccc(Br)cc2)c2ccccc21 | – | inconclusive: 35.5 µM [falling, partial curve, poor fit]
O=C(COC(=O)c1cc(S(=O)(=O)N2CCOCC2)ccc1F)NC1CC1 | inconclusive: 1.95% | –
COc1cc(OC)c(C(=O)Nc2ccc3ccccc3c2)cc1OC | inconclusive: 0.78% | –
